Measurements reported in paper PMC12511632.

Target: T1, C-terminally FLAG-tagged G2E3 (G2/M-phase-specific E3 ubiquitin ligase) (UniProt Q7L622)
T1 sequence: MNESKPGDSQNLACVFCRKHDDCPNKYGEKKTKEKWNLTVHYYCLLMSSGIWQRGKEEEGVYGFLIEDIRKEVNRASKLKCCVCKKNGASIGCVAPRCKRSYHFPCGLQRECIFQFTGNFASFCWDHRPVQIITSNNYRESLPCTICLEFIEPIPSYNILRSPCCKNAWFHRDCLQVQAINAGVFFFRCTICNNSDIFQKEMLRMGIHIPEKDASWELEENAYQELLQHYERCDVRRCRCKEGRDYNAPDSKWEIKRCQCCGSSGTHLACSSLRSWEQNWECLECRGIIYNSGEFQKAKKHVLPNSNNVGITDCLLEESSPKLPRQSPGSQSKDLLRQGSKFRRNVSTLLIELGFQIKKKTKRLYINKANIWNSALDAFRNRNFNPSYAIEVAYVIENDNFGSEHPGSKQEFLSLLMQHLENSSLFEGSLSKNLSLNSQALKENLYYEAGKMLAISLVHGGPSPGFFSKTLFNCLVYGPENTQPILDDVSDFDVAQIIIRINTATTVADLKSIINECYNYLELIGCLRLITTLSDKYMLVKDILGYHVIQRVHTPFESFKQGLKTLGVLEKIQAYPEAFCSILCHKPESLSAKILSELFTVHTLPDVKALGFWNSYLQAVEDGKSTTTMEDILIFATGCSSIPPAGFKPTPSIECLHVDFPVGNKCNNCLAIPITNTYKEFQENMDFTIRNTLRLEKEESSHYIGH
Assay: co-IP; HEK293TN cells (text: HEK293T) transfected with G2E3-FLAG or empty FLAG plasmid, 48 h; lysed in RIPA buffer; Pierce Co-IP kit; endogenous partners detected by immunoblot

With “ubiquitin (human (endogenous in HEK293TN))” the binding was “no binding”.

Results are given in words; binding and its absence hold for the method and conditions named. Binding seen in cells or lysates may run through a third protein. Sequences can lack the tags named with a protein.
